# Results as given in the supplement of paper PMC10849652.
# Amino acid sequences for entries named in this document (tags omitted). A change or cut given only in a name is not applied to a line headed by its entry.
# UniProt P49888: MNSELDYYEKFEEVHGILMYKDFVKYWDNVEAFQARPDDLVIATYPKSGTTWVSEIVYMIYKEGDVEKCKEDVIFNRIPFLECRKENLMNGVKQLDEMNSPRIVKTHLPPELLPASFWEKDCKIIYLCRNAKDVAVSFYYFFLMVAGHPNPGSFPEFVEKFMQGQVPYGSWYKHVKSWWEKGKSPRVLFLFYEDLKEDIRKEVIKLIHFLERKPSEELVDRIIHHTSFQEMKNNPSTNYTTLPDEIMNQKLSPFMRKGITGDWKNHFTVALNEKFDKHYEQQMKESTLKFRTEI
# UniProt Q9ULQ0: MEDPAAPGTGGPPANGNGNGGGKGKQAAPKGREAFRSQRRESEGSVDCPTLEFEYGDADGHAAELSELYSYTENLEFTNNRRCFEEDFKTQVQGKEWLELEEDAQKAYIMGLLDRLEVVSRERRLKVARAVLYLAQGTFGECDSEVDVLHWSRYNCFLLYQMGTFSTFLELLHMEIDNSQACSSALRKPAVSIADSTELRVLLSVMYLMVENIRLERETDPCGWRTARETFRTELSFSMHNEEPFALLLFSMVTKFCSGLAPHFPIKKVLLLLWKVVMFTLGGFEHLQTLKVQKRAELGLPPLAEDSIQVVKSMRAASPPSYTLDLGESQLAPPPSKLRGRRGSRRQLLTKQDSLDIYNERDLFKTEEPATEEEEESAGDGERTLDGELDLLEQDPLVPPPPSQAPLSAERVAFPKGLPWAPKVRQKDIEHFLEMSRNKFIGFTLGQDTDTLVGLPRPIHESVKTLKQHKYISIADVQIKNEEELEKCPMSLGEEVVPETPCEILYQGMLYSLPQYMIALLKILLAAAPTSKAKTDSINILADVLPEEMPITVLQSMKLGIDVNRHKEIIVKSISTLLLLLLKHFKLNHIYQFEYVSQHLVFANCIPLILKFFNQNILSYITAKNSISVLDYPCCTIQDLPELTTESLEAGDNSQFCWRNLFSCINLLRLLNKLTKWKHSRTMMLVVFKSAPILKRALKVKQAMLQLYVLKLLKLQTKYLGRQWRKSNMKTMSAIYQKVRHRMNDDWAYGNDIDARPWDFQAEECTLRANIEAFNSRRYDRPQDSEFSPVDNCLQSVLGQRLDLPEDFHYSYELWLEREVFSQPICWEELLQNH
# UniProt O95359: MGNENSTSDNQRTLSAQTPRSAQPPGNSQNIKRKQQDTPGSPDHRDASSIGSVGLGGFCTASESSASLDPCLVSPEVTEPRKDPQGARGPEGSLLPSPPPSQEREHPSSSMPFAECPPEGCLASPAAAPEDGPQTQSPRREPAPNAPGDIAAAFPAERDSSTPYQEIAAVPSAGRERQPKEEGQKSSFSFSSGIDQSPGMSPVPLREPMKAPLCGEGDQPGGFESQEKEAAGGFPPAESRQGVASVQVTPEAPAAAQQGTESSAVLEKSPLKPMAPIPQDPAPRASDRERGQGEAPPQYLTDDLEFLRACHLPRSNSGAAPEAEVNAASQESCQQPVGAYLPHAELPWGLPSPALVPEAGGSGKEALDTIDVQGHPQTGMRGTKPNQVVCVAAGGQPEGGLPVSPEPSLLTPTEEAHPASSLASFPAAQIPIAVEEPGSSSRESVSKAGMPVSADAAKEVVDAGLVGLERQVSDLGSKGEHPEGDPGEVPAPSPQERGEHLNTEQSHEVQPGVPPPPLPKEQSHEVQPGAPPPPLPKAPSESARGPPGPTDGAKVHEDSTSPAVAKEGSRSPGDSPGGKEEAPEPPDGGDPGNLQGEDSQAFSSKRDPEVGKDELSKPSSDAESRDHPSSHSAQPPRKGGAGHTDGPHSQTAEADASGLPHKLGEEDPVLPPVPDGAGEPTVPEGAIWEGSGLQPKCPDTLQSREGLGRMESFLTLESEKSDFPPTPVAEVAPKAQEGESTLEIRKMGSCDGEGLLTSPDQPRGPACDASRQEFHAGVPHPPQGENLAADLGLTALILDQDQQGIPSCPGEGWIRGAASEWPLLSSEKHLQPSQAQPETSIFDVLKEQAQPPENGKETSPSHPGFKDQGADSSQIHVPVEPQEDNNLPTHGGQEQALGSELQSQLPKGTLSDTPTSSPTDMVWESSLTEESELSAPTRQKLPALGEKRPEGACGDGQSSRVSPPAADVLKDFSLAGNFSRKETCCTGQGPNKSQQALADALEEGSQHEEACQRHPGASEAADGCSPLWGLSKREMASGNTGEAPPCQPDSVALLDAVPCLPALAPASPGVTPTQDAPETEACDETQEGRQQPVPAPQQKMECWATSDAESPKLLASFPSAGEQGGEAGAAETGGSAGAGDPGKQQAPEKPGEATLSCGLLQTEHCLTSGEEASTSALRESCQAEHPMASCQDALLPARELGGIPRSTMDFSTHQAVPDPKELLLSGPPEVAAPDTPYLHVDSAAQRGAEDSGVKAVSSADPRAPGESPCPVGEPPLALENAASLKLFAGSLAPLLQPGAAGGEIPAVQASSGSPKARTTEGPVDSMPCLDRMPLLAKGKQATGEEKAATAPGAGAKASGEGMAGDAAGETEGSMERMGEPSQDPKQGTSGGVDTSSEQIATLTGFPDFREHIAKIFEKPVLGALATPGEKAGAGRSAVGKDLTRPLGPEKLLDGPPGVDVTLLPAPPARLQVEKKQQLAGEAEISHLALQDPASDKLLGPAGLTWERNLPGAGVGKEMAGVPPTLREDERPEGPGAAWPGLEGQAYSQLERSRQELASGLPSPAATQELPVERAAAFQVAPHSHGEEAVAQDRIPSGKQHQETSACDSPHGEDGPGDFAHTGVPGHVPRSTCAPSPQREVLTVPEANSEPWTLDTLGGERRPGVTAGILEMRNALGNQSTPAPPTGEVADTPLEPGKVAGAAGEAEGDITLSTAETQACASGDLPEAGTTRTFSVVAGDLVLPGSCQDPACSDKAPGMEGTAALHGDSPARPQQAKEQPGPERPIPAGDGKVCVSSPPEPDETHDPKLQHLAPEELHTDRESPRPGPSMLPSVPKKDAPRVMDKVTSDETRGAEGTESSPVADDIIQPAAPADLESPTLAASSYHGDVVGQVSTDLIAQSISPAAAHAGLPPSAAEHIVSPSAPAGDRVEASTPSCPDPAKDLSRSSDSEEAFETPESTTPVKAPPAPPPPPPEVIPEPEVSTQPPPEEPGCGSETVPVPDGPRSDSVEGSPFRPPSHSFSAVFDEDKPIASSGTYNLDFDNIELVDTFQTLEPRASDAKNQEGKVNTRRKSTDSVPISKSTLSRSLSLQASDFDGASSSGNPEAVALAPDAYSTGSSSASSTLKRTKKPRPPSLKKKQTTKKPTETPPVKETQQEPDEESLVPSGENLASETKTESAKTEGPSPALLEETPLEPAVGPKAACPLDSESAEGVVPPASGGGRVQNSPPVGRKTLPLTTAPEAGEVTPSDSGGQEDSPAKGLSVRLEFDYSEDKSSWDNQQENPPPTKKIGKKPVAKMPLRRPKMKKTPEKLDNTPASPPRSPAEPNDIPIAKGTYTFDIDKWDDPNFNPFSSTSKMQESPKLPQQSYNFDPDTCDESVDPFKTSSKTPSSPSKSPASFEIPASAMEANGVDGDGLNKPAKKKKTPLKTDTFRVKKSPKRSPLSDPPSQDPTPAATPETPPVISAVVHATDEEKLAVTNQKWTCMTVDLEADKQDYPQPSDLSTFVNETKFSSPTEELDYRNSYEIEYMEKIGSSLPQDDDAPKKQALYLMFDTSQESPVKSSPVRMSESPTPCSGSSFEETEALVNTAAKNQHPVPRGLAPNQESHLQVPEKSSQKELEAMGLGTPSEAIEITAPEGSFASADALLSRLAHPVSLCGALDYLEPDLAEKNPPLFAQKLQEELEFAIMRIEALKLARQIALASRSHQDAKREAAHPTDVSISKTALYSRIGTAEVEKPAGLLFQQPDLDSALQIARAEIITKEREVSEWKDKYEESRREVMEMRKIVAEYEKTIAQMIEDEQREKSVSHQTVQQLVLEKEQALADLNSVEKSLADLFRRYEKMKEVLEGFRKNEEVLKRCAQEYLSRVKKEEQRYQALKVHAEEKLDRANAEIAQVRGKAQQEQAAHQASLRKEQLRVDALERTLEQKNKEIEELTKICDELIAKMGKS
# UniProt Q9UBI4: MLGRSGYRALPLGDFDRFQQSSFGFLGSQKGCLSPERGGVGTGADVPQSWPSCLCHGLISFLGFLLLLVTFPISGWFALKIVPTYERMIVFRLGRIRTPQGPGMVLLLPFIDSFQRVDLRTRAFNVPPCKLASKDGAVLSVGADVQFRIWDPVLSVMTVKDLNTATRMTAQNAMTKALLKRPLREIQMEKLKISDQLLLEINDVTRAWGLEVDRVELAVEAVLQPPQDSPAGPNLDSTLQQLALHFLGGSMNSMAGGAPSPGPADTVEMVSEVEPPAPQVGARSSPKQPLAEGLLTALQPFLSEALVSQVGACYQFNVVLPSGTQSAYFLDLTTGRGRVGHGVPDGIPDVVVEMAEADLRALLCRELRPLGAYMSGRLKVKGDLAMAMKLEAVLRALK
# UniProt Q9BXI6: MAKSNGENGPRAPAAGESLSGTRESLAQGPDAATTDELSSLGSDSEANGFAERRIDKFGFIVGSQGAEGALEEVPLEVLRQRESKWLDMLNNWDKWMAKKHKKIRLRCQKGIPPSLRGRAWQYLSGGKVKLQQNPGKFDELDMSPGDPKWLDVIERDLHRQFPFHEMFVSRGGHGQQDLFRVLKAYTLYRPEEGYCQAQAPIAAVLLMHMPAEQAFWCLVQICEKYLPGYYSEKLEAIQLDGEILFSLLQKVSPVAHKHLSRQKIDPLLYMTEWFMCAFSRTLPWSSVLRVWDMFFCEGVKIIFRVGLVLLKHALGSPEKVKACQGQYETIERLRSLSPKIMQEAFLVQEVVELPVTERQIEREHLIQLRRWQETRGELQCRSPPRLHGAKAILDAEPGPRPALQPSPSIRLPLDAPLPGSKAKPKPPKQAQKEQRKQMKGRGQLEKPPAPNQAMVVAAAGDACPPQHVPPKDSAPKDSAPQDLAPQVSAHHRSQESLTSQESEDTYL
# UniProt Q9Y2Z0: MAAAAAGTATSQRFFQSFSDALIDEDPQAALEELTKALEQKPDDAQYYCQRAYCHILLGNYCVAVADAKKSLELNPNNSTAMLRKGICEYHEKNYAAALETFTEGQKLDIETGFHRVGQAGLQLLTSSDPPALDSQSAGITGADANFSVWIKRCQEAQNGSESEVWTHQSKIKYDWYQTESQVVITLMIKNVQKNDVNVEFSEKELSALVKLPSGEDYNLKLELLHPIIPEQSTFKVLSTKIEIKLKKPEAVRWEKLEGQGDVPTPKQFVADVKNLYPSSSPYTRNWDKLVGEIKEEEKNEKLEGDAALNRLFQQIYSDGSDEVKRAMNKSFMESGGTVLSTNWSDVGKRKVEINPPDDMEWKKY
# UniProt Q01995: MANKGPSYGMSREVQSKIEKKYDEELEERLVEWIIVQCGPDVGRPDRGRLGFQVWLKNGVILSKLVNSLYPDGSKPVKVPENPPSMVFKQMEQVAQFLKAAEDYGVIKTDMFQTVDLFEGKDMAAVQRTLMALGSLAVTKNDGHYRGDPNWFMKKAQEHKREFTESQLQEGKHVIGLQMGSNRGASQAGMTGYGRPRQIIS
# UniProt Q15542, whole entry, looked up: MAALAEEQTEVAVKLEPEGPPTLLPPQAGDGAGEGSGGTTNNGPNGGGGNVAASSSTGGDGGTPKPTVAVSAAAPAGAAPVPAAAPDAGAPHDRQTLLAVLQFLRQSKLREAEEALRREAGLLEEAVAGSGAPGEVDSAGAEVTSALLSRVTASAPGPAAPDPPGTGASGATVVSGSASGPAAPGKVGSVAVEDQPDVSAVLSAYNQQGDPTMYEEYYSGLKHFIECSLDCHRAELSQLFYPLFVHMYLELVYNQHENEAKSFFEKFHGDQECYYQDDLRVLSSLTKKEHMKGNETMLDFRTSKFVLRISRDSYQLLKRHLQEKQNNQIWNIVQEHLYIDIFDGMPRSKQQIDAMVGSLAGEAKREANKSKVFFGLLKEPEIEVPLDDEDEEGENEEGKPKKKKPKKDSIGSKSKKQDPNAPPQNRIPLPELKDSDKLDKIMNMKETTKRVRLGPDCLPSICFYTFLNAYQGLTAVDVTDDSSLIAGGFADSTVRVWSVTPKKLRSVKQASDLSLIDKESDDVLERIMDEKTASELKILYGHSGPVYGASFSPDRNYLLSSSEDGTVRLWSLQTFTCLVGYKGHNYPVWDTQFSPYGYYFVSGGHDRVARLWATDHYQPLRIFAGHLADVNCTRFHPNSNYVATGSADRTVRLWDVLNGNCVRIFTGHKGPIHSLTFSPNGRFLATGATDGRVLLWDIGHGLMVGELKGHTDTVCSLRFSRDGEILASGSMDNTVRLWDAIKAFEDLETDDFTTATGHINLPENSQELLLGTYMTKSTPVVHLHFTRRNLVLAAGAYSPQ
# The other results are listed elsewhere or left out.
# Tests used:
# Assay in all cases: log2 fold change, soluble protein after heating vs DMSO (PISA); higher = thermal stabilisation; K562 cells, 10 uM, 30 min; active = over 0.2 and 3.5 SD of the protein, either way, in both replicates (recomputed)
# [1] = compound: C[C@@H]1COCCN1C2=NC(=NC(=C2)C3(CC3)S(=O)(=O)C)C4=C5C=CNC5=CC=C4
# Summary of the method: (§1)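 Values are thermal stability changes relative to control samples and are taken from duplicates. They are stated as log2 fold changes. Before quantification by TMTpro 16plex LC-MS/MS with equalised channel sums, K562 cells at 2×10^6 cells/mL were treated with 10 μM compound for 30 min, heated in aliquots for 3 min across 48°C-58°C, pooled, extracted in PBS with 0.5% NP-40 at 4°C, and centrifuged at 21,000xg for 90 min to give the soluble supernatant.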
# [2] = compound: C[C@H](C1=CC=C(C=C1)C(=O)NC2=C3C=CNC3=NC=C2)N
# Summary of the method: as §1
# tozasertib = compound: Cc1cc(Nc2cc(N3CCN(C)CC3)nc(Sc3ccc(NC(=O)C4CC4)cc3)n2)n[nH]1 [tozasertib]
# Summary of the method: as §1
# gandotinib = compound: Cc1cc(Nc2cc(CN3CCOCC3)c3nc(C)c(Cc4ccc(Cl)cc4F)n3n2)n[nH]1 [gandotinib]
# Summary of the method: as §1
# [3] = compound: CS(=O)(=O)c1ccc(-c2cnc(N)c(C(=O)Nc3ccccc3)n2)cc1
# Summary of the method: as §1
# duvelisib = compound: C[C@H](Nc1ncnc2nc[nH]c12)c1cc2cccc(Cl)c2c(=O)n1-c1ccccc1 [duvelisib]
# Summary of the method: as §1
# [4] = compound: Cc1cc(SCc2sc(-c3ccc(C(F)(F)F)cc3)nc2C)ccc1OCC(=O)O
# Summary of the method: as §1
# ispinesib = compound: Cc1ccc(C(=O)N(CCCN)[C@@H](c2nc3cc(Cl)ccc3c(=O)n2Cc2ccccc2)C(C)C)cc1 [ispinesib]
# Summary of the method: as §1
# crizotinib = compound: C[C@@H](Oc1cc(-c2cnn(C3CCNCC3)c2)cnc1N)c1c(Cl)ccc(F)c1Cl [crizotinib]
# Summary of the method: as §1
# doramapimod = compound: Cc1ccc(-n2nc(C(C)(C)C)cc2NC(=O)Nc2ccc(OCCN3CCOCC3)c3ccccc23)cc1 [doramapimod]
# Summary of the method: as §1
target,measurement,setting,value
TBC1D12 (UniProt O60347),log2 fold change,[1],inactive: -0.036
same,log2 fold change,[2],inactive: 0.355
same,log2 fold change,tozasertib,inactive: -0.149
SULT1E1 (UniProt P49888),log2 fold change,gandotinib,inactive: -0.156
STRIP2 (UniProt Q9ULQ0),log2 fold change,[3],inactive: -0.065
same,log2 fold change,[1],inactive: -0.035
same,log2 fold change,[2],inactive: -0.01
same,log2 fold change,duvelisib,inactive: 0.008
same,log2 fold change,gandotinib,inactive: -0.021
same,log2 fold change,tozasertib,inactive: -0.003
same,log2 fold change,[4],inactive: 0.007
same,log2 fold change,ispinesib,inactive: -0.063
STXBP4 (UniProt Q6ZWJ1),log2 fold change,crizotinib,inactive: -0.227
same,log2 fold change,[1],inactive: -0.115
same,log2 fold change,doramapimod,inactive: 0.143
TACC2 (UniProt O95359),log2 fold change,[3],inactive: -0.045
same,log2 fold change,[2],inactive: -0.013
same,log2 fold change,gandotinib,inactive: -0.154
same,log2 fold change,[4],inactive: -0.005
same,log2 fold change,ispinesib,inactive: 0.145
STOML1 (UniProt Q9UBI4),log2 fold change,tozasertib,inactive: 0
same,log2 fold change,ispinesib,inactive: -0.508
SUSD1 isoform 2 (UniProt Q6UWL2),log2 fold change,crizotinib,inactive: 0.04
same,log2 fold change,[2],inactive: 0.076
same,log2 fold change,duvelisib,inactive: 0.005
same,log2 fold change,gandotinib,inactive: 0.057
same,log2 fold change,[4],inactive: 0.03
same,log2 fold change,doramapimod,inactive: -0.071
STK36 (UniProt Q9NRP7),log2 fold change,duvelisib,inactive: -0.033
same,log2 fold change,gandotinib,inactive: -0.203
same,log2 fold change,[4],inactive: 0.036
same,log2 fold change,ispinesib,inactive: -0.209
TBC1D10A (UniProt Q9BXI6),log2 fold change,crizotinib,inactive: -0.108
same,log2 fold change,[1],inactive: 0.104
same,log2 fold change,duvelisib,inactive: 0.045
same,log2 fold change,gandotinib,inactive: -0.424
same,log2 fold change,tozasertib,inactive: -0.105
same,log2 fold change,[4],inactive: 0.1
same,log2 fold change,doramapimod,inactive: -0.027
same,log2 fold change,ispinesib,inactive: -0.216
TACC3 (UniProt C9JWI7),log2 fold change,ispinesib,inactive: -0.123
TAZ (UniProt Q16635),log2 fold change,duvelisib,inactive: 0.098
same,log2 fold change,[4],inactive: -0.012
same,log2 fold change,ispinesib,inactive: -0.216
STK40 isoform 4 (UniProt Q8N2I9),log2 fold change,duvelisib,inactive: 0.103
same,log2 fold change,[4],inactive: 0.086
SYNE2 isoform 2 (UniProt Q8WXH0),log2 fold change,[3],inactive: 0.209
same,log2 fold change,crizotinib,inactive: -0.009
same,log2 fold change,[2],inactive: 0.429
same,log2 fold change,gandotinib,active: 0.521
same,log2 fold change,[4],inactive: 0.06
same,log2 fold change,doramapimod,inactive: 0.046
same,log2 fold change,ispinesib,inactive: -0.08
TASOR (UniProt Q9UK61),log2 fold change,ispinesib,inactive: -0.031
SUGT1 isoform 2 (UniProt Q9Y2Z0),log2 fold change,crizotinib,inactive: 0.127
same,log2 fold change,duvelisib,inactive: -0.012
same,log2 fold change,tozasertib,inactive: -0.081
same,log2 fold change,[4],inactive: 0.084
same,log2 fold change,doramapimod,inactive: -0.031
same,log2 fold change,ispinesib,inactive: -0.079
TAGLN (UniProt Q01995),log2 fold change,[3],inactive: -0.085
same,log2 fold change,crizotinib,inactive: -0.132
same,log2 fold change,duvelisib,inactive: 0.128
same,log2 fold change,gandotinib,inactive: 0.02
same,log2 fold change,[4],inactive: -0.183
same,log2 fold change,doramapimod,inactive: -0.032
TAF5 (UniProt Q15542),log2 fold change,crizotinib,inactive: -0.079
same,log2 fold change,[1],inactive: 0.07
same,log2 fold change,gandotinib,inactive: 0.084
same,log2 fold change,doramapimod,inactive: 0.214
same,log2 fold change,ispinesib,inactive: -0.255
SYTL4 (UniProt Q96C24),log2 fold change,[3],inactive: 0.188
same,log2 fold change,[1],inactive: 0.078
same,log2 fold change,[2],inactive: 0.041
same,log2 fold change,duvelisib,inactive: 0.007
same,log2 fold change,tozasertib,inactive: -0.108
same,log2 fold change,[4],inactive: -0.082

# Shown with tabs: part of the list above
target	measurement	setting	value
TACC2 (UniProt O95359)	log2 fold change	[4]	inactive: -0.005
same	log2 fold change	ispinesib	inactive: 0.145
STOML1 (UniProt Q9UBI4)	log2 fold change	tozasertib	inactive: 0
